# Data source: PubChem BioAssay AID1159594 (NIAID, 2016)
# Test: 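Mapping how TLR pathway genes contribute to TLR2/6 signalling in macrophage-like cells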
# Cell system: human THP-1 B5 reporter cells, PMA-differentiated into macrophage-like cells
# Knock-down reagent: single siRNA against human genes
# Duration: 48 to 72 hours after siRNA transfection; ligand exposure 4 hours
# Challenge: Pam2CSK4 (TLR2/6 agonist) stimulation for 4 hours before lysis; dose not given
# Measurement: 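TNF promoter reporter signal as firefly to renilla luciferase ratio, scaled per plate by median and MAD, given as robust z-score against negative controls, averaged across replicates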
# Direction: TNF reporter z-score: higher = stronger TNF promoter reporter activity
# Active means: 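Active when the mean z-score across replicates is at or beyond ±1.5 in either direction, matching a depositor grade of 50 or higher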
# Meaning of the calls: active = z-score beyond ±1.5 (either direction); inactive = z-score within ±1.5
# This is an unselected part of 756 reagents tested. 130 of all reagents (17%) were called active. 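Active calls cover both falls and rises of reporter activity; each row reflects one siRNA, not a gene-level verdict.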 Entries without a mark were called inactive. Reagents against one gene are numbered here. Not stated in the record: the amount of reagent.
target,reagent,"TNF reporter z-score, replicate mean"
NFKBIA (NFKB inhibitor alpha),1,-1.52 (active)
NFKBIA (NFKB inhibitor alpha),2,-0.0507
NFKBIA (NFKB inhibitor alpha),3,-0.0514
NFKBIA (NFKB inhibitor alpha),4,-1.03
NFKBIA (NFKB inhibitor alpha),5,-0.314
NFKBIA (NFKB inhibitor alpha),6,-0.68
MAPK10 (mitogen-activated protein kinase 10),1,-0.883
MAPK10 (mitogen-activated protein kinase 10),2,0.00604
MAPK10 (mitogen-activated protein kinase 10),3,-0.441
MAPK10 (mitogen-activated protein kinase 10),4,-0.0274
MAPK10 (mitogen-activated protein kinase 10),5,0.388
MAPK10 (mitogen-activated protein kinase 10),6,-0.00543
TAB3 (TGF-beta activated kinase 1 (MAP3K7) binding protein 3),1,-0.31
TAB3 (TGF-beta activated kinase 1 (MAP3K7) binding protein 3),2,0.726
TAB3 (TGF-beta activated kinase 1 (MAP3K7) binding protein 3),3,-0.0429
TAB3 (TGF-beta activated kinase 1 (MAP3K7) binding protein 3),4,0.339
TAB3 (TGF-beta activated kinase 1 (MAP3K7) binding protein 3),5,0.289
TAB3 (TGF-beta activated kinase 1 (MAP3K7) binding protein 3),6,-0.989
EGR2 (early growth response 2),1,-0.0947
EGR2 (early growth response 2),2,-1.09
EGR2 (early growth response 2),3,-2.35 (active)
EGR2 (early growth response 2),4,-1.08
EGR2 (early growth response 2),5,-0.656
EGR2 (early growth response 2),6,-2.2 (active)
IL12A (interleukin 12A),1,0.34
IL12A (interleukin 12A),2,-1.05
IL12A (interleukin 12A),3,0.62
IL12A (interleukin 12A),4,0.449
IL12A (interleukin 12A),5,-0.97
IL12A (interleukin 12A),6,-0.635
"JUN (Jun proto-oncogene, AP-1 transcription factor subunit)",1,-1.8 (active)
"JUN (Jun proto-oncogene, AP-1 transcription factor subunit)",2,-3.33 (active)
"JUN (Jun proto-oncogene, AP-1 transcription factor subunit)",3,-0.75
"JUN (Jun proto-oncogene, AP-1 transcription factor subunit)",4,-0.219
"JUN (Jun proto-oncogene, AP-1 transcription factor subunit)",5,-1.16
"JUN (Jun proto-oncogene, AP-1 transcription factor subunit)",6,0.709
IRF7 (interferon regulatory factor 7),1,-1.04
IRF7 (interferon regulatory factor 7),2,-1.57 (active)
IRF7 (interferon regulatory factor 7),3,-0.843
IRF7 (interferon regulatory factor 7),4,-0.615
IRF7 (interferon regulatory factor 7),5,-1.77 (active)
IRF7 (interferon regulatory factor 7),6,-1.21
"REL (REL proto-oncogene, NF-kB subunit)",1,-0.592
"REL (REL proto-oncogene, NF-kB subunit)",2,-0.344
"REL (REL proto-oncogene, NF-kB subunit)",3,-0.396
"REL (REL proto-oncogene, NF-kB subunit)",4,-1.36
"REL (REL proto-oncogene, NF-kB subunit)",5,-0.398
"REL (REL proto-oncogene, NF-kB subunit)",6,0.39
